# Laboratory results published in the supplement of paper PMC4604168 (melanoma cell lines).
# The other results are listed elsewhere or left out. Single values are uncertain, as repeats are few or missing.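 Imaging used 1,536-well plates; nuclei positive for cleaved PARP by antibody were divided by total DNA-stained nuclei to yield the apoptosis fraction. Doses for screening kept most cells viable, and cell lines differ markedly in resting and induced cleaved-PARP levels.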
# Tested on: WM115
# Assay: cleaved PARP positive nuclei fraction relative to DMSO control; melanoma cells; higher = more apoptosis
# Conditions: library dose: low library concentration; 72 h
row,SMILES,cleaved PARP positive nuclei fraction [%]
1,"C[C@]1(O)C[C@@H](c2nc(-c3ccc4ccc(-c5ccccc5)nc4c3)c3c(N)nccn32)C1 + CCCS(=O)(=O)Nc1ccc(F)c(C(=O)c2c[nH]c3ncc(Cl)cc23)c1F [PLX4720] (first compound 0.4 µM, partner dose 0.08 µM)",172
2,"Cn1cnc2c(F)c(Nc3ccc(Br)cc3Cl)c(C(=O)NOCCO)cc21 [selumetinib] + C#Cc1cccc(Nc2ncnc3cc(OCCOC)c(OCCOC)cc23)c1 [erlotinib] (first compound 0.015 µM, partner dose 0.8 µM)",138
3,"Cn1sc(=O)n(Cc2ccccc2)c1=O + OCc1c[nH]c2ccccc12 [Indole-3-carbinol] (first compound 0.4 µM, partner dose 0.8 µM)",67.8
4,"Cn1cnc2c(F)c(Nc3ccc(Br)cc3Cl)c(C(=O)NOCCO)cc21 [selumetinib] + C[C@@H](Oc1cc(-c2cnn(C3CCNCC3)c2)cnc1N)c1c(Cl)ccc(F)c1Cl [Crizotinib] (first compound 0.015 µM, partner dose 0.2 µM)",125
5,"NC(=O)c1ccc(N(C(N)=O)c2c(F)cccc2F)nc1-c1ccc(F)cc1F + Clc1ccc(Nc2nnc(Cc3ccncc3)c3ccccc23)cc1 [vatalanib] (first compound 0.4 µM, partner dose 2 µM)",68.2
6,"Cn1sc(=O)n(Cc2ccccc2)c1=O + Clc1ccc(Nc2nnc(Cc3ccncc3)c3ccccc23)cc1 [vatalanib] (first compound 0.4 µM, partner dose 2 µM)",37.8
7,"COc1ccc(C2=N[C@@H](c3ccc(Cl)cc3)[C@@H](c3ccc(Cl)cc3)N2C(=O)N2CCNC(=O)C2)c(OC(C)C)c1 [Nutlin-3] + CC(=O)c1c(C)c2cnc(Nc3ccc(N4CCNCC4)cn3)nc2n(C2CCCC2)c1=O [palbociclib] (first compound 0.1 µM, partner dose 0.04 µM)",88.3
8,"COc1ccc(C2=N[C@@H](c3ccc(Cl)cc3)[C@@H](c3ccc(Cl)cc3)N2C(=O)N2CCNC(=O)C2)c(OC(C)C)c1 [Nutlin-3] + Cn1c(=O)n(-c2ccc(C(C)(C)C#N)cc2)c2c3cc(-c4cnc5ccccc5c4)ccc3ncc21 [NVP-BEZ235] (first compound 0.1 µM, partner dose 0.004 µM)",144
9,"NC(=O)c1ccc(N(C(N)=O)c2c(F)cccc2F)nc1-c1ccc(F)cc1F + C=C(c1ccc(C(=O)O)cc1)c1cc2c(cc1C)C(C)(C)CCC2(C)C [Bexarotene] (first compound 0.4 µM, partner dose 2 µM)",65
10,"Cn1cnc2c(F)c(Nc3ccc(Br)cc3Cl)c(C(=O)NOCCO)cc21 [selumetinib] + Cn1nnc2c(C(N)=O)ncn2c1=O [temozolomide] (first compound 0.015 µM, partner dose 2 µM)",140
11,"C[C@]1(O)C[C@@H](c2nc(-c3ccc4ccc(-c5ccccc5)nc4c3)c3c(N)nccn32)C1 + CS(=O)(=O)c1ccc(C(=O)Nc2ccc(Cl)c(-c3ccccn3)c2)c(Cl)c1 [vismodegib] (first compound 0.4 µM, partner dose 1 µM)",154
12,"C[C@]1(O)C[C@@H](c2nc(-c3ccc4ccc(-c5ccccc5)nc4c3)c3c(N)nccn32)C1 + Cc1cc(Nc2cc(N3CCN(C)CC3)nc(/C=C/c3ccccc3)n2)n[nH]1 [ENMD2076] (first compound 0.4 µM, partner dose 0.04 µM)",133
13,"Cn1cnc2c(F)c(Nc3ccc(Br)cc3Cl)c(C(=O)NOCCO)cc21 [selumetinib] + O=C(O)[C@@H]1[O][Sb](=[O])([O][Sb]2(=[O])[O][C@H]([C@H](O)CO)[C@H](O)[C@H](C(=O)O)[O]2)[O][C@H]([C@H](O)CO)[C@@H]1O [stibogluconate] (first compound 0.015 µM, partner dose 2 µM)",212
14,"Cn1cnc2c(F)c(Nc3ccc(Br)cc3Cl)c(C(=O)NOCCO)cc21 [selumetinib] + CCN(CC)CCNC(=O)c1c(C)[nH]c(/C=C2\C(=O)Nc3ccc(F)cc32)c1C [sunitinib] (first compound 0.015 µM, partner dose 0.4 µM)",52.8
15,"Cn1sc(=O)n(Cc2ccccc2)c1=O + CN(c1ncccc1CNc1nc(Nc2ccc3c(c2)CC(=O)N3)ncc1C(F)(F)F)S(C)(=O)=O [PF562271] (first compound 0.4 µM, partner dose 0.08 µM)",55.6
16,"CC1(C)CCC(c2ccc(Cl)cc2)=C(CN2CCN(c3ccc(C(=O)NS(=O)(=O)c4ccc(N[C@H](CCN5CCOCC5)CSc5ccccc5)c(S(=O)(=O)C(F)(F)F)c4)cc3)CC2)C1 + OCc1c[nH]c2ccccc12 [Indole-3-carbinol] (first compound 0.4 µM, partner dose 0.8 µM)",239
17,"CC(=O)O[C@@]12CO[C@@H]1C[C@H](O)[C@@]1(C)C(=O)[C@H](O)C3=C(C)[C@@H](OC(=O)[C@H](O)[C@@H](NC(=O)OC(C)(C)C)c4ccccc4)C[C@@](O)([C@@H](OC(=O)c4ccccc4)[C@H]21)C3(C)C [Docetaxel] + NC1(c2ccc(-c3nc4ccn5c(=O)[nH]nc5c4cc3-c3ccccc3)cc2)CCC1 [MK2206] (first compound 0.0001 µM, partner dose 0.4 µM)",555
18,"C[C@]1(O)C[C@@H](c2nc(-c3ccc4ccc(-c5ccccc5)nc4c3)c3c(N)nccn32)C1 + Nc1cccc2c1CN(C1CCC(=O)NC1=O)C2=O [lenalidomide] (first compound 0.4 µM, partner dose 1 µM)",25.4
19,"C[C@@H](N)c1ccc(C(=O)Nc2ccnc3[nH]ccc23)cc1 + C=CCNC1=C2C[C@@H](C)C[C@H](OC)[C@H](O)[C@@H](C)/C=C(\C)[C@H](OC(N)=O)[C@@H](OC)/C=C\C=C(/C)C(=O)NC(=CC1=O)C2=O [Tanespimycin] (first compound 0.4 µM, partner dose 0.002 µM)",120

# Reformatted with bars between the fields: entries from further up
row | SMILES | cleaved PARP positive nuclei fraction [%]
17 | CC(=O)O[C@@]12CO[C@@H]1C[C@H](O)[C@@]1(C)C(=O)[C@H](O)C3=C(C)[C@@H](OC(=O)[C@H](O)[C@@H](NC(=O)OC(C)(C)C)c4ccccc4)C[C@@](O)([C@@H](OC(=O)c4ccccc4)[C@H]21)C3(C)C [Docetaxel] + NC1(c2ccc(-c3nc4ccn5c(=O)[nH]nc5c4cc3-c3ccccc3)cc2)CCC1 [MK2206] (first compound 0.0001 µM, partner dose 0.4 µM) | 555
18 | C[C@]1(O)C[C@@H](c2nc(-c3ccc4ccc(-c5ccccc5)nc4c3)c3c(N)nccn32)C1 + Nc1cccc2c1CN(C1CCC(=O)NC1=O)C2=O [lenalidomide] (first compound 0.4 µM, partner dose 1 µM) | 25.4
